Laboratory results published in PMC12748396.
No constants are given. Whether binding was seen depends on the method and setting. In cells and extracts the contact can be indirect. Some binding calls cover weakened binding; strength is not graded here. For some of these results: Where a sequence is shown, tags or fusion partners need not be part of it.

T1: GST-IL-13 fusion protein (mouse) (UniProt P20109)
T1 sequence: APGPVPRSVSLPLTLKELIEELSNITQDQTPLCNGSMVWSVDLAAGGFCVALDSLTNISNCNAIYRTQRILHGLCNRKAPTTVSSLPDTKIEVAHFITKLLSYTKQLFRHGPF

T2: Trem2, transfected in HEK293T cells (UniProt Q99NH8)
T2 sequence: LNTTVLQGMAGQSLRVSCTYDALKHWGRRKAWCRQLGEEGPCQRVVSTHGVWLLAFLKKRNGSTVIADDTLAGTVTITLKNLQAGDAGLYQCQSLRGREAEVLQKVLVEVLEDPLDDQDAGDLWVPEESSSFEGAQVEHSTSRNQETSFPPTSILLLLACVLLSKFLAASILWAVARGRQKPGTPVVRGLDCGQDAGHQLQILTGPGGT

T3: Trem2, endogenous in RAW 264.7 cells (mouse (endogenous in RAW 264.7)) (UniProt Q99NH8)
T3 sequence: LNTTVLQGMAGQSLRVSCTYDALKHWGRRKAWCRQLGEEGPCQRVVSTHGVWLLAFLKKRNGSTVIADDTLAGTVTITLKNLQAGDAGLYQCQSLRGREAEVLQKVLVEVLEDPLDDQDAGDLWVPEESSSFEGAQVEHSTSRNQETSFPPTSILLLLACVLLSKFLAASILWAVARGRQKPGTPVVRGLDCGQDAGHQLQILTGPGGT


What was measured:
[1] = target: T1, GST-IL-13 fusion protein (mouse); experiment: pull-down; GST-IL-13 immobilised on GST beads, incubated with binding buffer containing His-tagged Trem2 fragments expressed in HEK-293T cells; Western blotting
[2] = target: T2, Trem2, transfected in HEK293T cells; experiment: co-IP; lysates of transfected HEK-293T cells incubated overnight at 4 °C with anti-IL-13 or anti-Trem2 antibodies, protein A/G Plus-agarose 2 h, Western blotting
[3] = target: T3, Trem2, endogenous in RAW 264.7 cells (mouse (endogenous in RAW 264.7)); experiment: co-IP; endogenous proteins; lysates of RAW 264.7 cells and of RAW 264.7 cells with IL-13 receptor knockout (IL-13R-KO), anti-IL-13 or anti-Trem2 antibodies overnight at 4 °C, protein A/G Plus-agarose 2 h, Western blotting

binding [1] | Binder | further results
no binding | His-Trem2 [NT-aa133-227] (domain or fragment, UniProt Q99NH8 133-227) LDDQDAGDLWVPEESSSFEGAQVEHSTSRNQETSFPPTSILLLLACVLLSKFLAASILWAVARGRQKPGTPVVRGLDCGQDAGHQLQILTGPGGT | –
– | IL-13, transfected in HEK293T cells (ligand, UniProt P20109 19-131) APGPVPRSVSLPLTLKELIEELSNITQDQTPLCNGSMVWSVDLAAGGFCVALDSLTNISNCNAIYRTQRILHGLCNRKAPTTVSSLPDTKIEVAHFITKLLSYTKQLFRHGPF | binding [2]: binds
– | IL-13, endogenous in RAW 264.7 cells (ligand, UniProt P20109 19-131) APGPVPRSVSLPLTLKELIEELSNITQDQTPLCNGSMVWSVDLAAGGFCVALDSLTNISNCNAIYRTQRILHGLCNRKAPTTVSSLPDTKIEVAHFITKLLSYTKQLFRHGPF | binding [3]: binds
binds | His-Trem2 [NT-aa1-132] (domain or fragment, UniProt Q99NH8 19-132) LNTTVLQGMAGQSLRVSCTYDALKHWGRRKAWCRQLGEEGPCQRVVSTHGVWLLAFLKKRNGSTVIADDTLAGTVTITLKNLQAGDAGLYQCQSLRGREAEVLQKVLVEVLEDP | –
